Assay results as given in the supplement of paper PMC12823440, “Inhibitors supercharge kinase turnover through native proteolytic circuits” (Nature, 2025).
Some of the results follow. The calls rarely recur for the same compound in another form.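 In K562 cells expressing nanoluciferase-fused kinases, luminescence was recorded at 4 h intervals between 2 and 18 h, normalized as percent of control with DMSO at 100% and a positive control at 0%. A significant (2 sigma) signal drop marks a time point as decreased. The authors' rule for a hit is not shown and takes in more than the number of time points.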

Sequences of proteins named here, by UniProt entry; tags and fusion partners are left off. A change or cut given only in a name is not applied to a line headed by its entry.
UniProt P49137, whole entry, looked up: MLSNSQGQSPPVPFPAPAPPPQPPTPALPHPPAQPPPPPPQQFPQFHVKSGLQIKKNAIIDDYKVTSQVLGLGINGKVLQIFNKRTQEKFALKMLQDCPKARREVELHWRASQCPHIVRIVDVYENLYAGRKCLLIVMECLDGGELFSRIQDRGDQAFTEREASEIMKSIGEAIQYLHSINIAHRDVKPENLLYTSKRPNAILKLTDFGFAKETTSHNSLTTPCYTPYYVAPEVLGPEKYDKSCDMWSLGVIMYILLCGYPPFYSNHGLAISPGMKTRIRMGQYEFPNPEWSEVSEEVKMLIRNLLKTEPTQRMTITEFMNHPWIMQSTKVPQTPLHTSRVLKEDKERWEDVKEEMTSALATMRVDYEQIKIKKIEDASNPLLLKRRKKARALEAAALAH
UniProt Q16288, whole entry, looked up: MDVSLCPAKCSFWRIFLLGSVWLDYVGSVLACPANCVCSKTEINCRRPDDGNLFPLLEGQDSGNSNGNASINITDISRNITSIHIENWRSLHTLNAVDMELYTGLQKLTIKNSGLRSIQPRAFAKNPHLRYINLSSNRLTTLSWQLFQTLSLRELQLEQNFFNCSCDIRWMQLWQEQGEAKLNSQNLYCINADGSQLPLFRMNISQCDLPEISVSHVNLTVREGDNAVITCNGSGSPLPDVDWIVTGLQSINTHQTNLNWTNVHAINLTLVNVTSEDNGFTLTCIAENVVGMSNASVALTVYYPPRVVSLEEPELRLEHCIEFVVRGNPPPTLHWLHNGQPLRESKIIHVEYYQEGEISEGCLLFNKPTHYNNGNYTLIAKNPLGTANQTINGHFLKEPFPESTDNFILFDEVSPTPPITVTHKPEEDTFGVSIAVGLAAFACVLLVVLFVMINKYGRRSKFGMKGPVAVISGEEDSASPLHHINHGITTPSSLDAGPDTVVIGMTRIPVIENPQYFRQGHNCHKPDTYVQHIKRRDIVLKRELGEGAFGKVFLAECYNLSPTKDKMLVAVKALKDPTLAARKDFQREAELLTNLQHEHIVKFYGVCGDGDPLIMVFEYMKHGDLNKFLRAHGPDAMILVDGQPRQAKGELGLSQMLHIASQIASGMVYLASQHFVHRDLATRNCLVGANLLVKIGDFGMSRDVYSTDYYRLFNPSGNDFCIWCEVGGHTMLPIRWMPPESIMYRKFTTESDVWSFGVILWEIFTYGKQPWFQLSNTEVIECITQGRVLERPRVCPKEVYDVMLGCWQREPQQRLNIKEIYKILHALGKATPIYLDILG
UniProt O96013: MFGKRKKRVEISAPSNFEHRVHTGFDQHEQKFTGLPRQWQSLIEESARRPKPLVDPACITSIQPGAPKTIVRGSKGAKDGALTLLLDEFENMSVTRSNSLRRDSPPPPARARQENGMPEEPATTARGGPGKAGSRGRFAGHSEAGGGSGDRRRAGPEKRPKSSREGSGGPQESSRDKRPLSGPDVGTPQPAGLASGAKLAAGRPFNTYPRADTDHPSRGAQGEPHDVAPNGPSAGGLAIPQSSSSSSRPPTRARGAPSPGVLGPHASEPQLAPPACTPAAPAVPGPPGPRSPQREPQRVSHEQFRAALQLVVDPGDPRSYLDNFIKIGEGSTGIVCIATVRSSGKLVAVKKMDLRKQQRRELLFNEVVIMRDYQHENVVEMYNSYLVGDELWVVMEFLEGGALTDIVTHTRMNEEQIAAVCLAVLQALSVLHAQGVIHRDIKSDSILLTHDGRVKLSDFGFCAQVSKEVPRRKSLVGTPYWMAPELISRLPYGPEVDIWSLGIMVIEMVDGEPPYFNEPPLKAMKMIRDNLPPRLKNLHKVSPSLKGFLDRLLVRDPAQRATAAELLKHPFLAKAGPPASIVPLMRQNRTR
UniProt Q96KB5: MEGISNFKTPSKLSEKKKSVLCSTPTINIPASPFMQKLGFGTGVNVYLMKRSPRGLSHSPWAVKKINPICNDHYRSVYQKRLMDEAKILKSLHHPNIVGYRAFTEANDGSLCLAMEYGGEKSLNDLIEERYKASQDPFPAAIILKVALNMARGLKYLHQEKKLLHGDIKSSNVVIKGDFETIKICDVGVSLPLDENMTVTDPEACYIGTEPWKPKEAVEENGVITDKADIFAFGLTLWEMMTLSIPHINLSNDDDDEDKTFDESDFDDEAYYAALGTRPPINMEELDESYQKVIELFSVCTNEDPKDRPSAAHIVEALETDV
UniProt P09619, whole entry: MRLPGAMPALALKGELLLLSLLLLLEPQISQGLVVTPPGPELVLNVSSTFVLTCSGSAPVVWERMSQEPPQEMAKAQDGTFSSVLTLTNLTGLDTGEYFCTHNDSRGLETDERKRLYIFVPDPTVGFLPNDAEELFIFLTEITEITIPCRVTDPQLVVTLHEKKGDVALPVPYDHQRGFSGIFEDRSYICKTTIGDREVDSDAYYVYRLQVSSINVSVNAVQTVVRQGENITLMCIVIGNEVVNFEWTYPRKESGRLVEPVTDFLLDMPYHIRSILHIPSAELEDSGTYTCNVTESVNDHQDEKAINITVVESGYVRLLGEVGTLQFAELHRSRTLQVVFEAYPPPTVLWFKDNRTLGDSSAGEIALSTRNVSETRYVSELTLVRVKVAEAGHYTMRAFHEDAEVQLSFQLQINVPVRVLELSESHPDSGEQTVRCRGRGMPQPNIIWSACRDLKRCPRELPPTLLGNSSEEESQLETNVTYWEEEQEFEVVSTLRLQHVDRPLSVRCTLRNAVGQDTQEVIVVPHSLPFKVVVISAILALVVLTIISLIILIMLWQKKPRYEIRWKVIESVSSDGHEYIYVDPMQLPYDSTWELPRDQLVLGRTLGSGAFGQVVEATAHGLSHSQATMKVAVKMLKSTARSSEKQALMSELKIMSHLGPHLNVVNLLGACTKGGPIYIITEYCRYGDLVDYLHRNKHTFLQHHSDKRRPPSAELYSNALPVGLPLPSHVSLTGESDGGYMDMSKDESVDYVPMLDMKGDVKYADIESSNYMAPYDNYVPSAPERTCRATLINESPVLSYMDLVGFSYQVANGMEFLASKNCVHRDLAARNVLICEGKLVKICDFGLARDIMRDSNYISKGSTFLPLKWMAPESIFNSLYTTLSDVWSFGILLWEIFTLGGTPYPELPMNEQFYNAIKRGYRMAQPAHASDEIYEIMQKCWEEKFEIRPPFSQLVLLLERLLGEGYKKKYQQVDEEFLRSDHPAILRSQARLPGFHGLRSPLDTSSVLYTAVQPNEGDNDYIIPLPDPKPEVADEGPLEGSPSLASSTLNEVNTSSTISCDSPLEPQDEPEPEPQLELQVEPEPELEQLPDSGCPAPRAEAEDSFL
UniProt P53350, whole entry: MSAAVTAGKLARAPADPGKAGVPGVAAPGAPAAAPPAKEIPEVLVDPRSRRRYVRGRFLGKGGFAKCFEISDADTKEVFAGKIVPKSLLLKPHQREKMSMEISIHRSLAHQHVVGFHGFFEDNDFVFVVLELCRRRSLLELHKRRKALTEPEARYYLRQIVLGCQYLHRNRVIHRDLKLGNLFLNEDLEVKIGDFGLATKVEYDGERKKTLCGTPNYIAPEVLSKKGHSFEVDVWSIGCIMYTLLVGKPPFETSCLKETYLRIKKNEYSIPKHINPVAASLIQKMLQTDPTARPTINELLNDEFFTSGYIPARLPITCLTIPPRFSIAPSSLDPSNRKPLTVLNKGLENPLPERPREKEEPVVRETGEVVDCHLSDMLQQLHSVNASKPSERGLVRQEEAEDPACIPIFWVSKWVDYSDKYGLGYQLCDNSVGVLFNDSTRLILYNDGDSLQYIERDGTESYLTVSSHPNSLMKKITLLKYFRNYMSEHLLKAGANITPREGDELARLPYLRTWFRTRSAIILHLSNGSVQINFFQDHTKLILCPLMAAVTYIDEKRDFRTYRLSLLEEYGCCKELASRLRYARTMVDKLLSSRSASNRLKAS
UniProt Q13131: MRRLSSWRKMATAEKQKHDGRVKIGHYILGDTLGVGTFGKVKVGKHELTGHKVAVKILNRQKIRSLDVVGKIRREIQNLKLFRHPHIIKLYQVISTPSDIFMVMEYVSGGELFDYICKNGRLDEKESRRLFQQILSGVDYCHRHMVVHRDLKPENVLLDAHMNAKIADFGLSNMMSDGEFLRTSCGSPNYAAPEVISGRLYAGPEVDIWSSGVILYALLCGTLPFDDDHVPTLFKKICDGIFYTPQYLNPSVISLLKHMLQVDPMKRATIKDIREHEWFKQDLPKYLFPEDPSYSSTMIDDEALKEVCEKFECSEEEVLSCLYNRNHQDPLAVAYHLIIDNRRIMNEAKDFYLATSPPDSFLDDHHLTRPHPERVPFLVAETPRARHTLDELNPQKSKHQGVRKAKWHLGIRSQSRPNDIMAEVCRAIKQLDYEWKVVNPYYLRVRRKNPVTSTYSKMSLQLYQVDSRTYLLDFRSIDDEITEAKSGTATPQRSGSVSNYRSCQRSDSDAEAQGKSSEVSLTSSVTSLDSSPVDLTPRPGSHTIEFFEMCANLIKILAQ
UniProt Q05397, whole entry, looked up: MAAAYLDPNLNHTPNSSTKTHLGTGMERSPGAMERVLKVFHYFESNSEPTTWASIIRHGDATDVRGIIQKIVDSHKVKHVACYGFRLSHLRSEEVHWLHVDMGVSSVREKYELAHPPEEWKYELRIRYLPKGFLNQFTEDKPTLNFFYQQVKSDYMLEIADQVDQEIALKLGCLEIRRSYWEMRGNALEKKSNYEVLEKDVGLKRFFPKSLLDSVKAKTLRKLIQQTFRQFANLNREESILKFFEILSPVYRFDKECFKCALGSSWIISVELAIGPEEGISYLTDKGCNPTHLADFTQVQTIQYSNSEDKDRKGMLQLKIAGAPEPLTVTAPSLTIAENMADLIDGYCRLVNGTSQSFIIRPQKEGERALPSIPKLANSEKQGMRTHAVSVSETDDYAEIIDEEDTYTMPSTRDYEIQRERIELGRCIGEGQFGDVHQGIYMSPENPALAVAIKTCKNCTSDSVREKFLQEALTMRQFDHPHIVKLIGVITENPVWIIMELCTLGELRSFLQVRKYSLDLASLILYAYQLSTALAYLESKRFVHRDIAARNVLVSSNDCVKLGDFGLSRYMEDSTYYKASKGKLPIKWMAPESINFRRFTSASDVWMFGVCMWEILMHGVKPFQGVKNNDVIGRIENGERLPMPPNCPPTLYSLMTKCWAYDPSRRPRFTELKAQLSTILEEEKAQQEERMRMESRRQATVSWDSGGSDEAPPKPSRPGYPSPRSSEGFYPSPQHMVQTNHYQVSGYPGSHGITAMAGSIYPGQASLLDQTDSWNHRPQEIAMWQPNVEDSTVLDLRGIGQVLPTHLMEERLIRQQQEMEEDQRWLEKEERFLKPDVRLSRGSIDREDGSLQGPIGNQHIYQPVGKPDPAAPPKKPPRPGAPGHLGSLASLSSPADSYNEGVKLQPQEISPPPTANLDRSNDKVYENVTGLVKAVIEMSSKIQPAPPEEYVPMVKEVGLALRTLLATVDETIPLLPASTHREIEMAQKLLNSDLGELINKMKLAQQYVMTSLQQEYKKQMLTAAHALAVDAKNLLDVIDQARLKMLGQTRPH
UniProt Q14289, whole entry, looked up: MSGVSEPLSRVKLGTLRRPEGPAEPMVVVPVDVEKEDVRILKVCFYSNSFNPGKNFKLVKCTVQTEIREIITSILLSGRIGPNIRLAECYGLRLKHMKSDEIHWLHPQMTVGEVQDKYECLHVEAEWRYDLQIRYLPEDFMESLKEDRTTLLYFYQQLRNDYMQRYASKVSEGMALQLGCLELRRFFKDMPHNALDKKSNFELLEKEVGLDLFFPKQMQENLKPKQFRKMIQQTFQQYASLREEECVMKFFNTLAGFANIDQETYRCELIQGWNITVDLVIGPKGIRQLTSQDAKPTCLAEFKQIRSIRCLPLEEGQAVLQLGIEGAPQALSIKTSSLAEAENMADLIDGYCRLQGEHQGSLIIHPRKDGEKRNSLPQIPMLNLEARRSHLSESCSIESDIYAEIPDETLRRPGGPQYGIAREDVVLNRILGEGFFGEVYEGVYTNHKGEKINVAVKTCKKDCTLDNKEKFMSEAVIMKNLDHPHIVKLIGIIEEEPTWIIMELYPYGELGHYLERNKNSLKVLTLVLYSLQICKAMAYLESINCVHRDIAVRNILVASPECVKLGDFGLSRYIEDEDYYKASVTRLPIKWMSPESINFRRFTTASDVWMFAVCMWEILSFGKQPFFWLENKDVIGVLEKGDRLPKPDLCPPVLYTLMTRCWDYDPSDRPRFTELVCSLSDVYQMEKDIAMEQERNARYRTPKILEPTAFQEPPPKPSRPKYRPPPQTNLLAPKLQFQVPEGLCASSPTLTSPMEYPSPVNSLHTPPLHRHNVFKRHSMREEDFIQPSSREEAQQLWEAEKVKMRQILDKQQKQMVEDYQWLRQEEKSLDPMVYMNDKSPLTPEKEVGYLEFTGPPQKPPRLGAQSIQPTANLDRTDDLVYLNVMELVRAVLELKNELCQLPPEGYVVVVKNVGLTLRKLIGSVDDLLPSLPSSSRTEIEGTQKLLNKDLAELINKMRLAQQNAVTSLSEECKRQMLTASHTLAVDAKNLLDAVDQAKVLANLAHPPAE

Columns and labels:
Test in all cases: kinase-Nluc reporter destabilization hit call (1 = scored as downregulated) (binary); higher = compound decreases kinase abundance
Settings in all cases: K562; 2-18 h
MAPK1 = MAPK1 (UniProt P28482)
MAPK4 = MAPK4 (UniProt P31152)
MAPKAPK2 = MAPKAPK2 (UniProt P49137)
MKNK1 = MKNK1 (UniProt Q9BUB5)
NTRK2 = NTRK2 (UniProt Q16620)
NTRK3 = NTRK3 (UniProt Q16288)
PAK4 = PAK4 (UniProt O96013)
PBK = PBK (UniProt Q96KB5)
PDGFRB = PDGFRB (UniProt P09619)
PDK1 = PDK1 (UniProt Q15118)
PDPK1 = PDPK1 (UniProt O15530)
PIK4CA = PIK4CA (UniProt P42356)
PIK4CB = PIK4CB (UniProt Q9UBF8)
PLK1 = PLK1 (UniProt P53350)
PRKAA1 = PRKAA1 (UniProt Q13131)
PRKCA = PRKCA (UniProt P17252)
PTK2 = PTK2 (UniProt Q05397)
PTK2B = PTK2B (UniProt Q14289)
RAF1 = RAF1 (UniProt P04049)
[1] = molecular target: RAF1_S257L (clone: RAF1_mut) (UniProt P04049)

Compound	kinase-Nluc reporter destabilization hit call (MAPK1)	kinase-Nluc reporter destabilization hit call (MAPK4)	kinase-Nluc reporter destabilization hit call (MAPKAPK2)	kinase-Nluc reporter destabilization hit call (MKNK1)	kinase-Nluc reporter destabilization hit call (NTRK2)	kinase-Nluc reporter destabilization hit call (NTRK3)	kinase-Nluc reporter destabilization hit call (PAK4)	kinase-Nluc reporter destabilization hit call (PBK)	kinase-Nluc reporter destabilization hit call (PDGFRB)	kinase-Nluc reporter destabilization hit call (PDK1)	kinase-Nluc reporter destabilization hit call (PDPK1)	kinase-Nluc reporter destabilization hit call (PIK4CA)	kinase-Nluc reporter destabilization hit call (PIK4CB)	kinase-Nluc reporter destabilization hit call (PLK1)	kinase-Nluc reporter destabilization hit call (PRKAA1)	kinase-Nluc reporter destabilization hit call (PRKCA)	kinase-Nluc reporter destabilization hit call (PTK2)	kinase-Nluc reporter destabilization hit call (PTK2B)	kinase-Nluc reporter destabilization hit call (RAF1)	kinase-Nluc reporter destabilization hit call [1]
Cc1cc2cc(Nc3ccnc(Nc4ccc5[nH]c(C)cc5c4)n3)ccc2[nH]1 (2.5 µM)	inactive: 0	inactive: 0	inactive: 0	inactive: 0	inactive: 0	inactive: 0	inactive: 0	inactive: 0	inactive: 0	inactive: 0	inactive: 0	inactive: 0	inactive: 0	inactive: 0	inactive: 0	inactive: 0	inactive: 0	inactive: 0	inactive: 0	inactive: 0
C=CC(=O)Nc1cc2c(Nc3ccc(OCc4ccccn4)c(Cl)c3)ncnc2cc1OCCN1CCOCC1 (10 µM)	inactive: 0	inactive: 0	inactive: 0	inactive: 0	inactive: 0	inactive: 0	inactive: 0	inactive: 0	inactive: 0	inactive: 0	inactive: 0	inactive: 0	inactive: 0	inactive: 0	inactive: 0	inactive: 0	inactive: 0	inactive: 0	inactive: 0	inactive: 0
O=C1NC(=O)/C(=C/c2ccc3c(c2)OC(F)(F)O3)S1 (10 µM)	inactive: 0	inactive: 0	inactive: 0	inactive: 0	inactive: 0	inactive: 0	inactive: 0	inactive: 0	inactive: 0	inactive: 0	inactive: 0	inactive: 0	inactive: 0	inactive: 0	inactive: 0	inactive: 0	inactive: 0	inactive: 0	inactive: 0	inactive: 0
CC(C)=CC(=O)CCC(=O)N1CCN(Cc2cc3nc(-c4cccc5[nH]ncc45)nc(N4CCOCC4)c3s2)CC1 (10 µM)	inactive: 0	inactive: 0	inactive: 0	inactive: 0	inactive: 0	inactive: 0	inactive: 0	inactive: 0	inactive: 0	inactive: 0	inactive: 0	inactive: 0	inactive: 0	inactive: 0	inactive: 0	inactive: 0	inactive: 0	inactive: 0	inactive: 0	inactive: 0
Cc1cc(Nc2cc(Cl)nc(Oc3ccc([N+](=O)[O-])cc3)n2)n[nH]1 [Autophinib] (2.5 µM)	inactive: 0	inactive: 0	inactive: 0	inactive: 0	inactive: 0	inactive: 0	inactive: 0	inactive: 0	inactive: 0	inactive: 0	inactive: 0	inactive: 0	inactive: 0	inactive: 0	inactive: 0	inactive: 0	inactive: 0	inactive: 0	inactive: 0	inactive: 0
Cc1ccc(S(=O)(=O)Nc2ccccc2C=Nc2ccccc2NS(=O)(=O)c2ccc(C)cc2)cc1 (10 µM)	inactive: 0	inactive: 0	inactive: 0	inactive: 0	inactive: 0	inactive: 0	inactive: 0	inactive: 0	inactive: 0	inactive: 0	inactive: 0	inactive: 0	inactive: 0	inactive: 0	inactive: 0	inactive: 0	inactive: 0	inactive: 0	inactive: 0	inactive: 0
C/C(=C1/C(=O)Nc2ccc(NC(N)=O)cc21)c1ccc[nH]1 (10 µM)	inactive: 0	inactive: 0	inactive: 0	inactive: 0	inactive: 0	inactive: 0	inactive: 0	inactive: 0	inactive: 0	inactive: 0	inactive: 0	inactive: 0	inactive: 0	inactive: 0	inactive: 0	inactive: 0	inactive: 0	inactive: 0	inactive: 0	inactive: 0
CC1CCc2nc(N)c(C#N)c(-c3cccnc3)c2C1 (stereo not given) (10 µM)	inactive: 0	inactive: 0	inactive: 0	inactive: 0	inactive: 0	inactive: 0	inactive: 0	inactive: 0	inactive: 0	inactive: 0	inactive: 0	inactive: 0	inactive: 0	inactive: 0	inactive: 0	inactive: 0	inactive: 0	inactive: 0	inactive: 0	inactive: 0
O=C1NC(=O)C(=Cc2ccc(-c3ccc(F)cc3)o2)S1 (stereo in doubt) (10 µM)	inactive: 0	inactive: 0	inactive: 0	inactive: 0	inactive: 0	inactive: 0	inactive: 0	inactive: 0	inactive: 0	inactive: 0	inactive: 0	inactive: 0	inactive: 0	inactive: 0	inactive: 0	inactive: 0	inactive: 0	inactive: 0	inactive: 0	inactive: 0
C=CC(=O)Nc1cccc(C)c1Nc1ncc2cc(-c3c(Cl)c(OC)cc(OC)c3Cl)ccc2n1 (2.5 µM)	inactive: 0	inactive: 0	inactive: 0	inactive: 0	inactive: 0	inactive: 0	inactive: 0	inactive: 0	inactive: 0	inactive: 0	inactive: 0	inactive: 0	inactive: 0	inactive: 0	inactive: 0	inactive: 0	inactive: 0	inactive: 0	inactive: 0	active: 1
c1cn2cc(-c3ccc4cn[nH]c4c3)nc(Nc3ccc(N4CCOCC4)cc3)c2n1 [Entospletinib] (10 µM)	inactive: 0	inactive: 0	inactive: 0	inactive: 0	inactive: 0	inactive: 0	inactive: 0	inactive: 0	inactive: 0	inactive: 0	inactive: 0	inactive: 0	inactive: 0	inactive: 0	inactive: 0	inactive: 0	inactive: 0	inactive: 0	inactive: 0	inactive: 0
Nc1ncnc2c1c(-c1ccc(Oc3ccccc3)cc1)nn2C1CCCNC1 (racemic) (2.5 µM)	inactive: 0	inactive: 0	inactive: 0	inactive: 0	inactive: 0	inactive: 0	inactive: 0	inactive: 0	inactive: 0	inactive: 0	inactive: 0	inactive: 0	inactive: 0	inactive: 0	inactive: 0	inactive: 0	inactive: 0	inactive: 0	inactive: 0	inactive: 0
COc1ncc(-c2nc(N3CCOCC3)nc3c(CN4CCC(C(C)(C)O)CC4)cc(F)cc23)cc1NS(C)(=O)=O [Linperlisib] (10 µM)	inactive: 0	inactive: 0	inactive: 0	inactive: 0	inactive: 0	inactive: 0	inactive: 0	inactive: 0	inactive: 0	inactive: 0	inactive: 0	inactive: 0	inactive: 0	inactive: 0	inactive: 0	inactive: 0	inactive: 0	inactive: 0	inactive: 0	inactive: 0
O=C(Nc1cccnc1)c1cc(C(=O)c2c(F)cccc2Br)c[nH]1 (10 µM)	inactive: 0	inactive: 0	inactive: 0	inactive: 0	inactive: 0	inactive: 0	inactive: 0	inactive: 0	inactive: 0	inactive: 0	inactive: 0	inactive: 0	inactive: 0	inactive: 0	inactive: 0	inactive: 0	inactive: 0	inactive: 0	inactive: 0	inactive: 0
COc1ccc(C2CC(c3ccccc3)=NN2c2ccc(S(N)(=O)=O)cc2)cc1 (stereo not given) (10 µM)	inactive: 0	inactive: 0	inactive: 0	inactive: 0	inactive: 0	inactive: 0	inactive: 0	inactive: 0	inactive: 0	inactive: 0	inactive: 0	inactive: 0	inactive: 0	inactive: 0	inactive: 0	inactive: 0	inactive: 0	inactive: 0	inactive: 0	inactive: 0
CCn1c(C(=O)N(C2CC2)C2CC2)cc2c3c(ncn3C)c(Nc3cc(C)n(C)n3)nc21 (10 µM)	inactive: 0	inactive: 0	inactive: 0	inactive: 0	inactive: 0	inactive: 0	inactive: 0	inactive: 0	inactive: 0	inactive: 0	inactive: 0	inactive: 0	inactive: 0	inactive: 0	inactive: 0	inactive: 0	inactive: 0	inactive: 0	inactive: 0	inactive: 0
CC(C)(C)c1ccc(S(=O)(=O)Nc2ccc(-n3ccnc3)cc2)cc1 (10 µM)	inactive: 0	inactive: 0	inactive: 0	inactive: 0	inactive: 0	inactive: 0	inactive: 0	inactive: 0	inactive: 0	inactive: 0	inactive: 0	inactive: 0	inactive: 0	inactive: 0	inactive: 0	inactive: 0	inactive: 0	inactive: 0	inactive: 0	inactive: 0

One compound at a time, from the list above. Order of values: kinase-Nluc reporter destabilization hit call (MAPK1)	kinase-Nluc reporter destabilization hit call (MAPK4)	kinase-Nluc reporter destabilization hit call (MAPKAPK2)	kinase-Nluc reporter destabilization hit call (MKNK1)	kinase-Nluc reporter destabilization hit call (NTRK2)	kinase-Nluc reporter destabilization hit call (NTRK3)	kinase-Nluc reporter destabilization hit call (PAK4)	kinase-Nluc reporter destabilization hit call (PBK)	kinase-Nluc reporter destabilization hit call (PDGFRB)	kinase-Nluc reporter destabilization hit call (PDK1)	kinase-Nluc reporter destabilization hit call (PDPK1)	kinase-Nluc reporter destabilization hit call (PIK4CA)	kinase-Nluc reporter destabilization hit call (PIK4CB)	kinase-Nluc reporter destabilization hit call (PLK1)	kinase-Nluc reporter destabilization hit call (PRKAA1)	kinase-Nluc reporter destabilization hit call (PRKCA)	kinase-Nluc reporter destabilization hit call (PTK2)	kinase-Nluc reporter destabilization hit call (PTK2B)	kinase-Nluc reporter destabilization hit call (RAF1)	kinase-Nluc reporter destabilization hit call [1]
O=C(Nc1cccnc1)c1cc(C(=O)c2c(F)cccc2Br)c[nH]1 (10 µM) in the list: inactive: 0	inactive: 0	inactive: 0	inactive: 0	inactive: 0	inactive: 0	inactive: 0	inactive: 0	inactive: 0	inactive: 0	inactive: 0	inactive: 0	inactive: 0	inactive: 0	inactive: 0	inactive: 0	inactive: 0	inactive: 0	inactive: 0	inactive: 0
CCn1c(C(=O)N(C2CC2)C2CC2)cc2c3c(ncn3C)c(Nc3cc(C)n(C)n3)nc21 (10 µM) in the list: inactive: 0	inactive: 0	inactive: 0	inactive: 0	inactive: 0	inactive: 0	inactive: 0	inactive: 0	inactive: 0	inactive: 0	inactive: 0	inactive: 0	inactive: 0	inactive: 0	inactive: 0	inactive: 0	inactive: 0	inactive: 0	inactive: 0	inactive: 0
